From the supplement of paper PMC3334620
Over roughly 33,000 sequences, “E-score (-0.5 to 0.5)” has its median near -0.016; the highest 2% begin near 0.3. Some of the results follow.

Biological target: T1, Yer184c (UniProt P39961)
T1 sequence: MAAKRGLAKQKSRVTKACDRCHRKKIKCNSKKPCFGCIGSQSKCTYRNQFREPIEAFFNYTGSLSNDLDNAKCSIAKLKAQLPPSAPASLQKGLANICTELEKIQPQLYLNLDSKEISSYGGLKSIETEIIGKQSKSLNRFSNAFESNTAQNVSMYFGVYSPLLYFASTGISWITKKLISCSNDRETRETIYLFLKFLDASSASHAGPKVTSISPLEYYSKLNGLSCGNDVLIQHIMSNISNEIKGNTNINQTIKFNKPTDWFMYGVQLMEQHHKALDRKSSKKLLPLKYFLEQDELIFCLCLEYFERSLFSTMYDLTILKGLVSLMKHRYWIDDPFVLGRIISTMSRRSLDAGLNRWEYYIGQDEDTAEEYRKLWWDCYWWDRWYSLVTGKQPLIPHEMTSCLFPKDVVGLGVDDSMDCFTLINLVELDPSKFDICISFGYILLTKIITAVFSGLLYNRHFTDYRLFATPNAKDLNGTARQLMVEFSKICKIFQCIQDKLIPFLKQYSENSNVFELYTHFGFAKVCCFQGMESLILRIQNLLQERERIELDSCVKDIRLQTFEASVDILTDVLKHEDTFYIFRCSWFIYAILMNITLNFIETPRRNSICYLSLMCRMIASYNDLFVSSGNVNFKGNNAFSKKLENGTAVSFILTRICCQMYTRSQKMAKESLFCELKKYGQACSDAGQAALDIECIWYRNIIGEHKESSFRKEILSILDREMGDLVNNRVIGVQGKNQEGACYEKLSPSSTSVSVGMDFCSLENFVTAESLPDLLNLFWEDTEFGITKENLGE
Assay: PBM E-score (8-mer binding enrichment) (E-score (-0.5 to 0.5)); higher = stronger / more preferred TF binding
Conditions: protein concentration: 100 nM; construct: GST-full length
In short: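 Bound GST-tagged yeast transcription factors, applied at about 100-200 nM to double-stranded universal all-10-mer Agilent arrays, were detected with fluorescent anti-GST. Scans were normalised with masliner. A modified Wilcoxon-Mann-Whitney statistic, the E-score, was assigned to each ungapped eight-base word pooled with its reverse complement by the Universal PBM Analysis Suite.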

Row | Sequence | PBM E-score
1 | CTTTCGCC | 0.0134
2 | GATGACTA | -0.0929
3 | ATACTAGC | 0.0381
4 | CAATGTAC | -0.19
5 | GGATCAAC | 0.0815
6 | GATTTCCC | 0.114
7 | CGGCTAAC | 0.289
8 | AACGTTAA | 0.184
9 | ATTAGGAA | 0.17
10 | AGCGGACT | -0.092
11 | GATAGAAC | -0.0813
12 | ATTGCTGA | 0.0144
13 | AGATCTTC | 0.0511
14 | ATCCGGAC | 0.322
15 | ATAAAAAT | 0.204
16 | CTGTAATA | 0.154
17 | CCCGGGGA | 0.172
18 | AAGAACGC | 0.0542
19 | CTCGAGCC | -0.0783
20 | ATTGGTTG | -0.0771
21 | GAATGTAC | 0.0399
22 | ATTTACAC | -0.149
23 | CCCCATTA | -0.311
24 | CCGGCCAG | 0.26
25 | TCCTGTCA | 0.0498

Row | Sequence | PBM E-score
26 | CTAGGAAG | -0.123
27 | AAGTTCGC | -0.0462
28 | ACTGCCCC | -0.228
29 | TCAGTAGA | 0.0655
30 | GGAATGAA | 0.139
31 | AAGTACAT | 0.0634
32 | CTTTAGAC | -0.1
33 | GTCTATTA | 0.0213
34 | CACCCGTG | -0.169
35 | CGTGGTTC | -0.0939
36 | AATTCCCC | 0.00037
37 | GGTGCGAC | -0.26
38 | CAATCTAC | -0.138
39 | GCTCGGCA | 0.288
40 | CTGAGTAC | -0.127
41 | CCGGCATA | 0.291
42 | CGTCTAAA | 0.0904
43 | CAGAATAA | 0.0674
44 | AGGCCTAG | -0.24
45 | AGTTCAAA | 0.224
46 | AACCCTAT | -0.0495
47 | GCATTATA | -0.109
48 | ATAAATAG | 0.186
49 | CTGCAGAC | -0.0366
50 | GCTCAATA | -0.0164

Row | Sequence | PBM E-score
51 | CCAGATAC | -0.0832
52 | GTATGGAC | 0.0884
53 | GCGCACGA | -0.0973
54 | GGATATCA | 0.0177
55 | AAGGACCC | 0.0266
56 | AAGACCCT | -0.173
57 | GAAAATCC | 0.177
58 | ACGAGATA | 0.0452
59 | AACAATGC | 0.0511
60 | TCTCCACA | 0.0288
61 | CACTGCGG | 0.0813
62 | CAGAGGCC | -0.248
63 | AGGCGATG | -0.0512
64 | CGAACTCG | 0.153
65 | CCTCAGCA | -0.145
66 | GAGAGGAC | -0.128
67 | TTATAAAA | 0.252
68 | GAACTGTC | 0.00455
69 | ACTCGCAG | -0.094
70 | CCTATTCA | -0.199
71 | AACTCCCC | -0.0487
72 | TCTACTCA | -0.0395
73 | CACTTGGC | -0.16
74 | CCGTAATC | 0.072
75 | CCGTCGTA | -0.0403

Row | Sequence | PBM E-score
76 | CCTTAGAG | -0.281
77 | ACGCGCGT | 0.102
78 | AAAGGGCT | -0.241
79 | AGCCTCGG | 0.101
80 | TATTATAA | 0.172
81 | AGATGTCA | 0.106
82 | ACGTACAC | -0.0472
83 | GGTTATGA | -0.0172
84 | AAGCTCCC | -0.206
85 | CAGGCTCA | -0.172
86 | GGTGATCA | -0.123
87 | AGACATTG | -0.0954
88 | ACGGAGTA | 0.202
89 | TACTGAAA | 0.189
90 | GGCTAAGA | -0.0206
91 | AACCAGTT | 0.126
92 | AGCGCCGG | 0.351
93 | CGTACACC | -0.103
94 | GCCCCGAC | -0.185
95 | CTGGCGTC | -0.234
96 | CACCCGAC | 0.0586
97 | AAGCGCCA | -0.208
98 | CCTTTTCA | -0.13
99 | ATTCCCTA | -0.0416
100 | AGTCCAAA | 0.0468

Row | Sequence | PBM E-score
101 | ATTGTTGC | -0.00032
102 | ACTTCAAT | 0.193
103 | CCAAAACG | -0.0278
104 | TACACCAA | 0.0508
105 | CCACAGGA | -0.0996
106 | AAGAGCCC | -0.151
107 | AATAGTCT | -0.0793
108 | AGGCCACT | -0.27
109 | TCGCAGAA | -0.0754
110 | ATGTCGGC | 0.0293
111 | TACCAAGA | 0.0716
112 | AACTGCCC | -0.132
113 | CCCCAGCA | -0.253
114 | GCAGTTGA | -0.0141
115 | ACAGTTTC | 0.168
116 | ACGTGCGG | -0.196
117 | CTCTTCTA | 0.00022
118 | ATATCCTA | -0.0362
119 | GGATTTAC | 0.178
120 | CCCCACGG | -0.0904
121 | GAATCTCA | -0.0982
122 | CTCAGATC | -0.0567
123 | GAAGGTAA | 0.177
124 | GCTACATA | -0.0272
125 | CCACGACC | -0.19

Row | Sequence | PBM E-score
126 | AGCTACTC | -0.0589
127 | AAAATGGG | -0.141
128 | CACATTAC | 0.0475
129 | AGCTCGGC | 0.316
130 | CGGTCATC | -0.0984
131 | AGCCACTA | -0.112
132 | GAGAAGGA | -0.183
133 | CACTATAG | -0.0432
134 | AGCCTGAT | -0.0829
135 | GGCGTCGA | 0.142
136 | ATACGCAC | 0.0199
137 | ATCGTCCA | -0.241
138 | TGTGGGAA | -0.207
139 | CCGACCTC | 0.0602
140 | CTCAGACA | -0.0841
141 | AATCATTG | -0.128
142 | ACGCCGTC | 0.0367
143 | ACTAATGC | 0.223
144 | AAGAACTG | -0.018
145 | CGGAGATC | 0.258
146 | CAACTCTA | -0.0145
147 | GTCAATAA | 0.158
148 | TATGATGA | 0.14
149 | ACCTTATG | -0.155
150 | CGCTACAA | 0.0421

Row | Sequence | PBM E-score
151 | AAGTAATG | 0.0676
152 | AATGCTAG | -0.0812
153 | AGTTCGCC | 0.151
154 | ATGTGGCA | -0.1
155 | CGGACGGC | 0.182
156 | AAGCGATA | -0.0896
157 | CCGGGCCA | 0.14
158 | GTAAAGCA | 0.0515
159 | ATAAATAC | 0.281
160 | GCGGGCGA | 0.156
161 | CGAAACGA | 0.17
162 | AAGTTTTG | 0.0605
163 | CAGTCGGA | -0.00198
164 | AGATCTAC | -0.107
165 | ATAGATGC | -0.102
166 | GACCCGTA | -0.157
167 | CTGAGTGC | -0.147
168 | CTACTAAA | 0.0599
169 | CTTGGTTA | 0.0322
170 | CATGCCAA | -0.0971
171 | ATGAAAGA | 0.0537
172 | AACTCCCG | 0.269
173 | TTACTCAA | 0.104
174 | ACTCGGCC | 0.121
175 | CTTCCCCC | -0.409

Row | Sequence | PBM E-score
176 | ATGCATAC | -0.103
177 | CGACTCCG | 0.0498
178 | TGGGCAAA | -0.0623
179 | AAATAATC | 0.159
180 | ACGCGTTC | 0.0869
181 | AAAGCGCA | -0.14
182 | CTAAAATA | 0.0456
183 | GAGCCATC | -0.122
184 | CCACGAAA | -0.0399
185 | CCCTCCCG | -0.0304
186 | ACTTGATA | 0.0929
187 | CTGCGCCC | -0.272
188 | CGATTGCG | -0.0268
189 | CCTTTACC | -0.142
190 | AGTGGTGA | -0.00186
191 | AGCCATAG | -0.242
192 | ACAAAACA | 0.176
193 | CCGGACGC | 0.198
194 | ATGTAGTG | -0.172
195 | GTTATAAA | 0.0949
196 | CTCACAGA | 0.0312
197 | AGTTGCAG | -0.132
198 | GTTAGTAA | 0.0718
199 | AAGACTTG | -0.168
200 | ACGAACAT | 0.171

Given in markdown: entries from further up

| Row | Sequence | PBM E-score |
| --- | --- | --- |
| 151 | AAGTAATG | 0.0676 |
| 152 | AATGCTAG | -0.0812 |
| 153 | AGTTCGCC | 0.151 |
| 154 | ATGTGGCA | -0.1 |
| 155 | CGGACGGC | 0.182 |
| 156 | AAGCGATA | -0.0896 |
| 157 | CCGGGCCA | 0.14 |
| 158 | GTAAAGCA | 0.0515 |
| 159 | ATAAATAC | 0.281 |
| 160 | GCGGGCGA | 0.156 |
| 161 | CGAAACGA | 0.17 |
| 162 | AAGTTTTG | 0.0605 |
| 163 | CAGTCGGA | -0.00198 |
| 164 | AGATCTAC | -0.107 |
| 165 | ATAGATGC | -0.102 |
| 166 | GACCCGTA | -0.157 |
| 167 | CTGAGTGC | -0.147 |
| 168 | CTACTAAA | 0.0599 |
| 169 | CTTGGTTA | 0.0322 |
| 170 | CATGCCAA | -0.0971 |
| 171 | ATGAAAGA | 0.0537 |
| 172 | AACTCCCG | 0.269 |
| 173 | TTACTCAA | 0.104 |
| 175 | CTTCCCCC | -0.409 |
| 176 | ATGCATAC | -0.103 |
| 177 | CGACTCCG | 0.0498 |
| 179 | AAATAATC | 0.159 |
| 180 | ACGCGTTC | 0.0869 |
| 181 | AAAGCGCA | -0.14 |
| 182 | CTAAAATA | 0.0456 |
| 183 | GAGCCATC | -0.122 |
| 184 | CCACGAAA | -0.0399 |
| 185 | CCCTCCCG | -0.0304 |
| 186 | ACTTGATA | 0.0929 |
| 187 | CTGCGCCC | -0.272 |
| 188 | CGATTGCG | -0.0268 |
| 189 | CCTTTACC | -0.142 |
| 190 | AGTGGTGA | -0.00186 |
| 191 | AGCCATAG | -0.242 |
| 192 | ACAAAACA | 0.176 |
| 193 | CCGGACGC | 0.198 |
| 194 | ATGTAGTG | -0.172 |
| 195 | GTTATAAA | 0.0949 |
| 196 | CTCACAGA | 0.0312 |
| 197 | AGTTGCAG | -0.132 |
| 198 | GTTAGTAA | 0.0718 |
| 199 | AAGACTTG | -0.168 |
| 200 | ACGAACAT | 0.171 |

Next part:

Row | Sequence | PBM E-score
201 | CGCTGTAA | 0.0542
202 | ACACATTG | 0.0319
203 | ATTGACTG | -0.0823
204 | TTATACAA | 0.313
205 | ATTTTCGG | 0.377
206 | CATCTCCA | -0.107
207 | CCGGGACG | 0.117
208 | ACTCCCAT | -0.153
209 | GGCCTCCC | -0.206
210 | CTTCTGGA | 0.104
211 | AGAATTCA | 0.066
212 | AGGGCCAG | -0.31
213 | TGCTTCCA | -0.199
214 | ACTGCAGT | -0.0631
215 | TGGGAGAA | -0.135
216 | ATCAGCCG | 0.275
217 | ACATCCGC | 0.252
218 | CATCCGAC | 0.247
219 | ACAGGATG | -0.0427
